Experimental data taken from patent publication US20240190989A1.
Results are given in words; binding and its absence hold for the method and conditions named. Some results given as binding are weak or reduced against the parent protein; the word gives no strength. Tags and fused reporters may be left off the sequences shown.

Target: human CD137 ECD-mIgG2a (human)
Assay: ELISA on coated human CD137 ECD-mIgG2a in the presence of serially diluted human CD137 ligand ECD-mIgG2a [panel A]

B1: BGA-5623 with a human IgG4 Fc fusion (Fc fusion)
chain: EVQLLESGGGLVQPGGSLRLSCAASGFTVSAEDVGWVRQAPGKGLEWVSAILDKGGSTYYAESVKGRFTISRDNAKNTLYLQMSSLRAEDTAVYYCARIVYHAGGGVTFDTRGQGTQVTVSSESKYGPPCPPCPAPEFLGGPSVFLFPPKPKDTLMISRTPEVTCVVVDVSQEDPEVQFNWYVDGVEVHNAKTKPREEQFNSTYRWSVLTVLHQDWLNGKEYKCKVSNKGLPSSIEKTISKAKGQPREPQVYTLPPSQEEMTKNQVSLTCLVKGFYPSDIAVEWESNGQPENNYKTTPPVLDSDGSFFLYSRLTVDKSRWQEGNVFSCSVMHEALHNHYTQKSLSLSLGK
In the case of B1, the binding is reported as “binds”.
